In the supplement of paper PMC8728848:
This is one part of the list.

Legend:
Test in all cases: glycan array binding signal (z-score within array); higher = stronger binding
Conditions in all cases: glycan notation: IUPAC condensed, linker removed
[1] = molecular target: Fuc(a1-2)Gal6S(b1-3)GlcNAc6S
Summary of the method: (§1)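 The Consortium for Functional Glycomics database supplied 3228 glycan arrays, of which those lacking an available protein sequence were dropped. The binding signal, a within-array Z-score, was averaged across arrays of the same protein sequence and across linkers. Negative scores can be read as non-binding.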

[2] = molecular target: Fuc(a1-2)Gal6S(b1-4)Glc
Summary of the method: as §1

[3] = molecular target: Fuc(a1-2)Gal6S(b1-4)Glc6S
Summary of the method: as §1

[4] = molecular target: Fuc(a1-2)[Gal(a1-3)]Gal
Summary of the method: as §1

[5] = molecular target: Fuc(a1-2)[Gal(a1-3)]Gal(b1-3)GalNAc
Summary of the method: as §1

[6] = molecular target: Fuc(a1-2)[Gal(a1-3)]Gal(b1-3)GalNAc(b1-3)Gal(a1-4)Gal(b1-4)Glc
Summary of the method: as §1

[7] = molecular target: Fuc(a1-2)[Gal(a1-3)]Gal(b1-3)GlcNAc
Summary of the method: as §1

[8] = molecular target: Fuc(a1-2)[Gal(a1-3)]Gal(b1-3)GlcNAc(b1-2)Man(a1-3)[Fuc(a1-2)[Gal(a1-3)]Gal(b1-3)GlcNAc(b1-2)Man(a1-6)]Man(b1-4)GlcNAc(b1-4)GlcNAc
Summary of the method: as §1

[9] = molecular target: Fuc(a1-2)[Gal(a1-3)]Gal(b1-3)GlcNAc(b1-2)Man(a1-3)[Fuc(a1-2)[Gal(a1-3)]Gal(b1-3)GlcNAc(b1-2)Man(a1-6)]Man(b1-4)GlcNAc(b1-4)[Fuc(a1-6)]GlcNAc
Summary of the method: as §1

[10] = molecular target: Fuc(a1-2)[Gal(a1-3)]Gal(b1-3)GlcNAc(b1-3)GalNAc
Summary of the method: as §1

[11] = molecular target: Fuc(a1-2)[Gal(a1-3)]Gal(b1-3)GlcNAc(b1-6)GalNAc
Summary of the method: as §1

[12] = molecular target: Fuc(a1-2)[Gal(a1-3)]Gal(b1-4)Glc
Summary of the method: as §1

[13] = molecular target: Fuc(a1-2)[Gal(a1-3)]Gal(b1-4)GlcNAc
Summary of the method: as §1

[14] = molecular target: Fuc(a1-2)[Gal(a1-3)]Gal(b1-4)GlcNAc(b1-2)Man
Summary of the method: as §1

[15] = molecular target: Fuc(a1-2)[Gal(a1-3)]Gal(b1-4)GlcNAc(b1-2)Man(a1-3)[Fuc(a1-2)[Gal(a1-3)]Gal(b1-4)GlcNAc(b1-2)Man(a1-6)]Man(b1-4)GlcNAc(b1-4)GlcNAc
Summary of the method: as §1

[16] = molecular target: Fuc(a1-2)[Gal(a1-3)]Gal(b1-4)GlcNAc(b1-2)Man(a1-3)[Fuc(a1-2)[Gal(a1-3)]Gal(b1-4)GlcNAc(b1-2)Man(a1-6)]Man(b1-4)GlcNAc(b1-4)[Fuc(a1-6)]GlcNAc
Summary of the method: as §1

[17] = molecular target: Fuc(a1-2)[Gal(a1-3)]Gal(b1-4)GlcNAc(b1-3)GalNAc
Summary of the method: as §1

[18] = molecular target: Fuc(a1-2)[Gal(a1-3)]Gal(b1-4)GlcNAc(b1-6)GalNAc
Summary of the method: as §1

[19] = molecular target: Fuc(a1-2)[Gal(a1-3)]Gal(b1-4)[Fuc(a1-3)]Glc
Summary of the method: as §1

[20] = molecular target: Fuc(a1-2)[Gal(a1-3)]Gal(b1-4)[Fuc(a1-3)]GlcNAc
Summary of the method: as §1

[21] = molecular target: Fuc(a1-2)[Gal(a1-3)]Gal(b1-4)[Fuc(a1-3)]GlcNAc(b1-3)GalNAc
Summary of the method: as §1

[22] = molecular target: Fuc(a1-2)[Gal(a1-4)]Gal(b1-4)GlcNAc
Summary of the method: as §1

[23] = molecular target: Fuc(a1-2)[GalNAc(a1-3)]Gal
Summary of the method: as §1

[24] = molecular target: Fuc(a1-2)[GalNAc(a1-3)]Gal(b1-3)GalNAc(a1-3)[Fuc(a1-2)]Gal(b1-4)GlcNAc
Summary of the method: as §1

[25] = molecular target: Fuc(a1-2)[GalNAc(a1-3)]Gal(b1-3)GalNAc(b1-3)Gal(a1-4)Gal(b1-4)Glc
Summary of the method: as §1

[26] = molecular target: Fuc(a1-2)[GalNAc(a1-3)]Gal(b1-3)GlcNAc
Summary of the method: as §1

[27] = molecular target: Fuc(a1-2)[GalNAc(a1-3)]Gal(b1-3)GlcNAc(b1-2)Man(a1-3)[Fuc(a1-2)[GalNAc(a1-3)]Gal(b1-3)GlcNAc(b1-2)Man(a1-6)]Man(b1-4)GlcNAc(b1-4)GlcNAc
Summary of the method: as §1

[28] = molecular target: Fuc(a1-2)[GalNAc(a1-3)]Gal(b1-3)GlcNAc(b1-2)Man(a1-3)[Fuc(a1-2)[GalNAc(a1-3)]Gal(b1-3)GlcNAc(b1-2)Man(a1-6)]Man(b1-4)GlcNAc(b1-4)[Fuc(a1-6)]GlcNAc
Summary of the method: as §1

[29] = molecular target: Fuc(a1-2)[GalNAc(a1-3)]Gal(b1-3)GlcNAc(b1-3)GalNAc
Summary of the method: as §1

[30] = molecular target: Fuc(a1-2)[GalNAc(a1-3)]Gal(b1-3)GlcNAc(b1-6)GalNAc
Summary of the method: as §1

[31] = molecular target: Fuc(a1-2)[GalNAc(a1-3)]Gal(b1-4)Glc
Summary of the method: as §1

[32] = molecular target: Fuc(a1-2)[GalNAc(a1-3)]Gal(b1-4)GlcNAc
Summary of the method: as §1

[33] = molecular target: Fuc(a1-2)[GalNAc(a1-3)]Gal(b1-4)GlcNAc(b1-2)Man
Summary of the method: as §1

[34] = molecular target: Fuc(a1-2)[GalNAc(a1-3)]Gal(b1-4)GlcNAc(b1-2)Man(a1-3)[Fuc(a1-2)[GalNAc(a1-3)]Gal(b1-4)GlcNAc(b1-2)Man(a1-6)]Man(b1-4)GlcNAc(b1-4)GlcNAc
Summary of the method: as §1

[35] = molecular target: Fuc(a1-2)[GalNAc(a1-3)]Gal(b1-4)GlcNAc(b1-2)Man(a1-3)[Fuc(a1-2)[GalNAc(a1-3)]Gal(b1-4)GlcNAc(b1-2)Man(a1-6)]Man(b1-4)GlcNAc(b1-4)[Fuc(a1-6)]GlcNAc
Summary of the method: as §1

[36] = molecular target: Fuc(a1-2)[GalNAc(a1-3)]Gal(b1-4)GlcNAc(b1-3)Gal(b1-4)GlcNAc
Summary of the method: as §1

[37] = molecular target: Fuc(a1-2)[GalNAc(a1-3)]Gal(b1-4)GlcNAc(b1-3)Gal(b1-4)GlcNAc(b1-3)Gal(b1-4)GlcNAc
Summary of the method: as §1

[38] = molecular target: Fuc(a1-2)[GalNAc(a1-3)]Gal(b1-4)GlcNAc(b1-3)GalNAc
Summary of the method: as §1

[39] = molecular target: Fuc(a1-2)[GalNAc(a1-3)]Gal(b1-4)GlcNAc(b1-3)[Fuc(a1-2)[GalNAc(a1-3)]Gal(b1-4)GlcNAc(b1-6)]GalNAc
Summary of the method: as §1

[40] = molecular target: Fuc(a1-2)[GalNAc(a1-3)]Gal(b1-4)GlcNAc(b1-6)GalNAc
Summary of the method: as §1

[41] = molecular target: Fuc(a1-2)[GalNAc(a1-3)]Gal(b1-4)[Fuc(a1-3)]GlcNAc
Summary of the method: as §1

[42] = molecular target: Fuc(a1-2)[GalNAc(a1-3)]Gal(b1-4)[Fuc(a1-3)]GlcNAc(b1-3)GalNAc
Summary of the method: as §1

[43] = molecular target: Fuc(a1-2)[GalNAc(a1-4)]Gal(b1-4)GlcNAc
Summary of the method: as §1

[44] = molecular target: Fuc(a1-2)[GalNAc(b1-3)]Gal
Summary of the method: as §1

[45] = molecular target: Fuc(a1-3)GlcNAc
Summary of the method: as §1

B1: Pbx2CASH domain (Cryptococcus neoformans) (protein)
chain: GIPGPNRLYRLSGPIIFTAADQEIATYGYPTGSERAVLRVEGRNTATAIQGDCRRCARVSVKNLVVDGNRKKLGRMRDFQLATGLVVLGGNEGQSIQNSWIKNPRGFTAIHIREGDKLQCSGARVEKNEIGPVGEEYDPEKDGDDPEMSPLGRPLADGVSIACRDSFIRDNTFRDNTDAAIVVYCSPGTLIHA
glycan array binding signal (z-score) [1]: 2.37
glycan array binding signal (z-score) [2]: -0.081
glycan array binding signal (z-score) [3]: -0.343
glycan array binding signal (z-score) [4]: -0.432
glycan array binding signal (z-score) [5]: 0.102
glycan array binding signal (z-score) [6]: -0.386
glycan array binding signal (z-score) [7]: 0.142
glycan array binding signal (z-score) [8]: -0.314
glycan array binding signal (z-score) [9]: -0.272
glycan array binding signal (z-score) [10]: -0.448
glycan array binding signal (z-score) [11]: -0.382
glycan array binding signal (z-score) [12]: -0.262
glycan array binding signal (z-score) [13]: -0.657
glycan array binding signal (z-score) [14]: -0.125
glycan array binding signal (z-score) [15]: -0.021
glycan array binding signal (z-score) [16]: -0.104
glycan array binding signal (z-score) [17]: 0.243
glycan array binding signal (z-score) [18]: 0.474
glycan array binding signal (z-score) [19]: -0.36
glycan array binding signal (z-score) [20]: -0.331
glycan array binding signal (z-score) [21]: 0.579
glycan array binding signal (z-score) [22]: -0.583
glycan array binding signal (z-score) [23]: -0.604
glycan array binding signal (z-score) [24]: 0.223
glycan array binding signal (z-score) [25]: -0.515
glycan array binding signal (z-score) [26]: -0.67
glycan array binding signal (z-score) [27]: -0.432
glycan array binding signal (z-score) [28]: -0.184
glycan array binding signal (z-score) [29]: 0.177
glycan array binding signal (z-score) [30]: -0.077
glycan array binding signal (z-score) [31]: -0.382
glycan array binding signal (z-score) [32]: -0.559
glycan array binding signal (z-score) [33]: -0.258
glycan array binding signal (z-score) [34]: 1.37
glycan array binding signal (z-score) [35]: -0.315
glycan array binding signal (z-score) [36]: -0.704
glycan array binding signal (z-score) [37]: -0.374
glycan array binding signal (z-score) [38]: 0.137
glycan array binding signal (z-score) [39]: -0.248
glycan array binding signal (z-score) [40]: -0.641
glycan array binding signal (z-score) [41]: -0.338
glycan array binding signal (z-score) [42]: 2.74
glycan array binding signal (z-score) [43]: -0.683
glycan array binding signal (z-score) [44]: -0.12
glycan array binding signal (z-score) [45]: -0.751
